Reference: PubChem BioAssay AID1259405 (NCATS, 2018)
Shown is a random part of about 50,000 deposited reagents. In the full data, about 4,000 (8%) got an active call. 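Mouse siRNA library applied to hamster cells; one well for each siRNA.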 Reagents against one gene are numbered here.

Test: 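Knock-downs that lift recombinant protein yield in hamster ovary cells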 (primary screen)
Cell system: Chinese hamster CHO-K1 ovary cells with stable secreted eGFP expression
Reagent: single siRNA against mouse genes, 0.8 pmol siRNA per well (2 µl of 400 nM stock)
Time to read-out: 3 days
Detection: 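Per-well intracellular GFP measured by laser scanning cytometry, plus viability from ATP luminescence, each relative to plate median of non-targeting control wells, in %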
Scale: GFP, % of control: higher = more GFP per well, higher productivity; viability (ATP), % of control: higher = more viable cells (more ATP)
Hit rule: 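a knock-down is called active if GFP reaches 120% or more of non-targeting control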

Dhrs7b #1
- GFP, % of control: 77.6
- viability (ATP), % of control: 47.9
- Call: inactive

Dhrs7b #2
- GFP, % of control: 80.6
- viability (ATP), % of control: 63.9
- Call: inactive

Dhrs7b #3
- GFP, % of control: 76.3
- viability (ATP), % of control: 69.8
- Call: inactive

Rdm1 #1
- GFP, % of control: 92.6
- viability (ATP), % of control: 86.5
- Call: inactive

Rdm1 #2
- GFP, % of control: 69.9
- viability (ATP), % of control: 72.1
- Call: inactive

Rdm1 #3
- GFP, % of control: 41.1
- viability (ATP), % of control: 59.3
- Call: inactive

Sit1 #1
- GFP, % of control: 43.7
- viability (ATP), % of control: 21.6
- Call: inactive

Sit1 #2
- GFP, % of control: 48.4
- viability (ATP), % of control: 58.6
- Call: inactive

Sit1 #3
- GFP, % of control: 76.7
- viability (ATP), % of control: 77.5
- Call: inactive

Dlgap4 #1
- GFP, % of control: 109
- viability (ATP), % of control: 81.2
- Call: inactive

Dlgap4 #2
- GFP, % of control: 82.6
- viability (ATP), % of control: 86.3
- Call: inactive

Dlgap4 #3
- GFP, % of control: 65.9
- viability (ATP), % of control: 32.3
- Call: inactive

Glb1l2 #1
- GFP, % of control: 66.4
- viability (ATP), % of control: 68.2
- Call: inactive

Glb1l2 #2
- GFP, % of control: 64.9
- viability (ATP), % of control: 86.5
- Call: inactive

Glb1l2 #3
- GFP, % of control: 139
- viability (ATP), % of control: 158
- Call: active

Trim26 #1
- GFP, % of control: 62.8
- viability (ATP), % of control: 52.7
- Call: inactive

Trim26 #2
- GFP, % of control: 112
- viability (ATP), % of control: 91
- Call: inactive

Trim26 #3
- GFP, % of control: 83.4
- viability (ATP), % of control: 107
- Call: inactive

Lrrc3b #1
- GFP, % of control: 138
- viability (ATP), % of control: 72.5
- Call: active

Lrrc3b #2
- GFP, % of control: 87.3
- viability (ATP), % of control: 95.5
- Call: inactive

Lrrc3b #3
- GFP, % of control: 77
- viability (ATP), % of control: 79.4
- Call: inactive

Abca14 #1
- GFP, % of control: 88.4
- viability (ATP), % of control: 65.7
- Call: inactive

Abca14 #2
- GFP, % of control: 51
- viability (ATP), % of control: 33.3
- Call: inactive

Abca14 #3
- GFP, % of control: 81
- viability (ATP), % of control: 92
- Call: inactive

Or8h9 #1
- GFP, % of control: 80.1
- viability (ATP), % of control: 38.4
- Call: inactive

Or8h9 #2
- GFP, % of control: 46.9
- viability (ATP), % of control: 51.9
- Call: inactive

Or8h9 #3
- GFP, % of control: 45.4
- viability (ATP), % of control: 58.8
- Call: inactive

Col7a1 #1
- GFP, % of control: 56.7
- viability (ATP), % of control: 94.5
- Call: inactive

Col7a1 #2
- GFP, % of control: 51.8
- viability (ATP), % of control: 93.4
- Call: inactive

Dbi #1
- GFP, % of control: 143
- viability (ATP), % of control: 124
- Call: active

Dbi #2
- GFP, % of control: 57.2
- viability (ATP), % of control: 65.8
- Call: inactive

Dbi #3
- GFP, % of control: 17.6
- viability (ATP), % of control: 27.5
- Call: inactive

Cdca8 #1
- GFP, % of control: 65.1
- viability (ATP), % of control: 87.4
- Call: inactive

Cdca8 #2
- GFP, % of control: 45.3
- viability (ATP), % of control: 72.6
- Call: inactive

Cdca8 #3
- GFP, % of control: 63.9
- viability (ATP), % of control: 70.8
- Call: inactive

Lhfpl4 #1
- GFP, % of control: 53.4
- viability (ATP), % of control: 32.9
- Call: inactive

Lhfpl4 #2
- GFP, % of control: 85.8
- viability (ATP), % of control: 94.9
- Call: inactive

Lhfpl4 #3
- GFP, % of control: 85.1
- viability (ATP), % of control: 70.7
- Call: inactive

Sparcl1 #1
- GFP, % of control: 84.2
- viability (ATP), % of control: 74.4
- Call: inactive

Sparcl1 #2
- GFP, % of control: 107
- viability (ATP), % of control: 94.9
- Call: inactive

Sparcl1 #3
- GFP, % of control: 59.1
- viability (ATP), % of control: 70.4
- Call: inactive

Trp53i13 #1
- GFP, % of control: 38
- viability (ATP), % of control: 39.5
- Call: inactive

Trp53i13 #2
- GFP, % of control: 154
- viability (ATP), % of control: 118
- Call: active

Lrp1 #1
- GFP, % of control: 101
- viability (ATP), % of control: 109
- Call: inactive

Lrp1 #2
- GFP, % of control: 69.9
- viability (ATP), % of control: 55.5
- Call: inactive

Lrp1 #3
- GFP, % of control: 37
- viability (ATP), % of control: 63.9
- Call: inactive

Snrpg #1
- GFP, % of control: 96.9
- viability (ATP), % of control: 107
- Call: inactive

Snrpg #2
- GFP, % of control: 110
- viability (ATP), % of control: 83.1
- Call: inactive

Gabpb1 #1
- GFP, % of control: 45.6
- viability (ATP), % of control: 43.6
- Call: inactive

Gabpb1 #2
- GFP, % of control: 62.7
- viability (ATP), % of control: 64.6
- Call: inactive

Gabpb1 #3
- GFP, % of control: 80.2
- viability (ATP), % of control: 83.1
- Call: inactive

Plk5 #1
- GFP, % of control: 246
- viability (ATP), % of control: 116
- Call: active

Plk5 #2
- GFP, % of control: 158
- viability (ATP), % of control: 68.9
- Call: active

Plk5 #3
- GFP, % of control: 55.6
- viability (ATP), % of control: 68.5
- Call: inactive

An excerpt of the results above, as a working copy:
Or8h9 #2
- GFP, % of control: 46.9
- viability (ATP), % of control: 51.9
- Call: inactive

Or8h9 #3
- GFP, % of control: 45.4
- viability (ATP), % of control: 58.8
- Call: inactive

Col7a1 #1
- GFP, % of control: 56.7
- viability (ATP), % of control: 94.5
- Call: inactive

Col7a1 #2
- GFP, % of control: 51.8
- viability (ATP), % of control: 93.4
- Call: inactive
